Some of these results come from one statement about several compounds together.
These compounds were tested against Helios (IKZF2) (Homo sapiens, UniProt Q96SW2+Q9UKS7) (assay: Screening of Helios protein degraders using Nano-Glo HiBiT cell line (HiBiT-IKZF2)). Conditions: as shown in Table 1.
Type: cell-based
Experimental: To observe intracellular degradation of Helios, the Nano-Glo HiBiT detection system (Promega) was employed. […] The cells expressing Helios fused with HiBiT were validated using the Nano-Glo HiBiT detection system (Promega) according to a predetermined protocol, isolated as single cells, and cultured in complete medium to establish a monoclonal cell line.
After 6 hours, the Nano-Glo HiBiT detection reagent was added to each well in an equal volume to the cell culture medium and incubated at room temperature for 10 minutes. Following incubation, the HiBiT luminescence signal was measured using a microplate reader (Perkin Elmer).

The chains behind the UniProt entries cited, without tags or fusion partners. Where a name states a change or a piece, a line headed by the entry shows the natural chain unless it says otherwise.
UniProt Q96SW2: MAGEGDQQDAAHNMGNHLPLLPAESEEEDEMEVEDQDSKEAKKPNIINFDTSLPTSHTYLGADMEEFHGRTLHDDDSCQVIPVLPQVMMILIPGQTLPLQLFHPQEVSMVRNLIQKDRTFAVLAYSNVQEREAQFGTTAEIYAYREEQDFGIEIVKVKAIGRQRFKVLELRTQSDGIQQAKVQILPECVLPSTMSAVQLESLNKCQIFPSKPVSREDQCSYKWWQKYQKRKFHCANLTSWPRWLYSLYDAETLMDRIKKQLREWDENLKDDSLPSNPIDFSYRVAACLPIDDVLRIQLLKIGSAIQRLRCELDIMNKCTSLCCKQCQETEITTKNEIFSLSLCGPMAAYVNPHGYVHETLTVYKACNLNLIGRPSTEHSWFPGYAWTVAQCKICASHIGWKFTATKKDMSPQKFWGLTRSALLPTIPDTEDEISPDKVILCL
UniProt Q9UKS7: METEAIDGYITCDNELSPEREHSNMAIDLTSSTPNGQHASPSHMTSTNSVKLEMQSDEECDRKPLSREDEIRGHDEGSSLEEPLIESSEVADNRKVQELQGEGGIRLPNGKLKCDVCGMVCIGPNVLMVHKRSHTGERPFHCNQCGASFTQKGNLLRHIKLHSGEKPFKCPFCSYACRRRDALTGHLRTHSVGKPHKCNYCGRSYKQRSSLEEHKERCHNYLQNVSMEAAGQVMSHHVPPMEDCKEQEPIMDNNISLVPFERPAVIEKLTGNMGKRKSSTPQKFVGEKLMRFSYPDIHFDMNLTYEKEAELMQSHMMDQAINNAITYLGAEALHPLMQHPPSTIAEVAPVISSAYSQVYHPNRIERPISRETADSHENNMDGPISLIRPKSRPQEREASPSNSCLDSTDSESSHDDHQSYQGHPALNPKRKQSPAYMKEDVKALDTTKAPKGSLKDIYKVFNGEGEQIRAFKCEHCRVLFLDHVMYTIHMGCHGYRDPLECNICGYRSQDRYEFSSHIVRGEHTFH

Row | Compound | IKZF2 degradation activity (in words, comment on Table 1)
1 | Cc1c(C(=O)N2CCC(c3ccc4c(c3)CN(C3CCC(=O)NC3=O)C4=O)CC2)[nH]c2ccccc12 (stereo not shown) [Compound 21, 3-(5-(1-(3-methyl-1H-indole-2-carbonyl)piperidin-4-yl)-1-oxoinsoindolin-2-yl)piperidine-2,6-dione] | superior IKZF2 degradation activity compared to unsubstituted compounds
2 | O=C1CCC(N2Cc3cc(C4CCN(C(=O)c5[nH]c6ccccc6c5CN5CCOCC5)CC4)ccc3C2=O)C(=O)N1 (stereo not shown) [Compound 34, 3-(5-(1-(3-(morpholinomethyl)-1H-indole-2-carbonyl)piperidin-4-yl)-1-oxoinsoindolin-2-yl)piperidine-2,6-dione] | superior IKZF2 degradation activity compared to unsubstituted compounds
3 | O=Cc1c(C(=O)N2CCC(c3ccc4c(c3)CN(C3CCC(=O)NC3=O)C4=O)CC2)[nH]c2ccccc12 (stereo not shown) [Compound 35, 2-(4-(2-(2,6-dioxopiperidin-3-yl)-1-oxoindolin-5-yl)piperidine-1-carbonyl)-1H-indole-3-carbaldehyde] | superior IKZF2 degradation activity compared to unsubstituted compounds
4 | O=C1CCC(N2Cc3cc(C4CCN(C(=O)c5[nH]c6ccccc6c5Br)CC4)ccc3C2=O)C(=O)N1 (stereo not shown) [Compound 36, 3-(5-(1-(3-bromo-1H-indole-2-carbonyl)piperidin-4-yl)-1-oxoinsoindolin-2-yl)piperidine-2,6-dione] | superior IKZF2 degradation activity compared to unsubstituted compounds
5 | Cc1c(C(=O)N2CCC(c3ccc4c(c3)CN(C3CCC(=O)NC3=O)C4=O)CC2)[nH]c2cc(Cl)ccc12 (stereo not shown) [Compound 39, 3-(5-(1-(6-chloro-3-methyl-1H-indole-2-carbonyl)piperidin-4-yl)-1-oxoinsoindolin-2-yl)piperidine-2,6-dione] | even greater IKZF2 degradation activity
6 | COc1ccc2c(C)c(C(=O)N3CCC(c4ccc5c(c4)CN(C4CCC(=O)NC4=O)C5=O)CC3)[nH]c2c1 (stereo not shown) [Compound 42, 3-(5-(1-(6-methoxy-3-methyl-1H-indole-2-carbonyl)piperidin-4-yl)-1-oxoinsoindolin-2-yl)piperidine-2,6-dione] | even greater IKZF2 degradation activity
7 | Cc1c(C(=O)N2CCC(c3ccc4c(c3)CN(C3CCC(=O)NC3=O)C4=O)CC2)[nH]c2cc(O)ccc12 (stereo not shown) [Compound 47, 3-(5-(1-(6-hydroxy-3-methyl-1H-indole-2-carbonyl)piperidin-4-yl)-1-oxoinsoindolin-2-yl)piperidine-2,6-dione] | even greater IKZF2 degradation activity
8 | Cc1c(C(=O)N2CCC(c3ccc4c(c3)CN(C3CCC(=O)NC3=O)C4=O)CC2)[nH]c2cc(C(F)(F)F)ccc12 (stereo not shown) [Compound 48, 3-(5-(1-(3-methyl-6-(trifluoromethyl)-1H-indole-2-carbonyl)piperidin-4-yl)-1-oxoinsoindolin-2-yl)piperidine-2,6-dione] | even greater IKZF2 degradation activity
9 | Cc1c(C(=O)N2CCC(c3ccc4c(c3)CN(C3CCC(=O)NC3=O)C4=O)CC2)[nH]c2cc(Br)ccc12 (stereo not shown) [Compound 49, 3-(5-(1-(6-bromo-3-methyl-1H-indole-2-carbonyl)piperidin-4-yl)-1-oxoinsoindolin-2-yl)piperidine-2,6-dione] | even greater IKZF2 degradation activity
10 | Cc1c(C(=O)N2CCC(c3ccc4c(c3)CN(C3CCC(=O)NC3=O)C4=O)CC2)[nH]c2cc(C#N)ccc12 (stereo not shown) [Compound 52, 2-(4-(2-(2,6-dioxopiperidin-3-yl)-1-oxoindolin-5-yl)piperidine-1-carbonyl)-3-methyl-1H-indole-6-carbonitrile] | even greater IKZF2 degradation activity
11 | Cc1c(C(=O)N2CCC(c3ccc4c(c3)CN(C3CCC(=O)NC3=O)C4=O)CC2)[nH]c2cc(OC(F)(F)F)ccc12 (stereo not shown) [Compound 53, 3-(5-(1-(3-methyl-6-(trifluoromethoxy)-1H-indole-2-carbonyl)piperidin-4-yl)-1-oxoinsoindolin-2-yl)piperidine-2,6-dione] | even greater IKZF2 degradation activity
12 | Cc1c(C(=O)N2CCC(c3ccc4c(c3)CN(C3CCC(=O)NC3=O)C4=O)CC2)[nH]c2cc(F)ccc12 (stereo not shown) [Compound 54, 3-(5-(1-(6-fluoro-3-methyl-1H-indole-2-carbonyl)piperidin-4-yl)-1-oxoinsoindolin-2-yl)piperidine-2,6-dione] | even greater IKZF2 degradation activity
13 | Cc1c(C(=O)N2CCC(c3ccc4c(c3)CN(C3CCC(=O)NC3=O)C4=O)CC2)[nH]c2cc([N+](=O)[O-])ccc12 (stereo not shown) [Compound 55, 3-(5-(1-(3-methyl-6-nitro-1H-indole-2-carbonyl)piperidin-4-yl)-1-oxoinsoindolin-2-yl)piperidine-2,6-dione] | even greater IKZF2 degradation activity
14 | Cc1c(C(=O)N2CCC(c3ccc4c(c3)CN(C3CCC(=O)NC3=O)C4=O)CC2)[nH]c2cc(C(C)(C)C)ccc12 (stereo not shown) [Compound 56, 3-(5-(1-(6-(tert-butyl)-3-methyl-1H-indole-2-carbonyl)piperidin-4-yl)-1-oxoinsoindolin-2-yl)piperidine-2,6-dione] | even greater IKZF2 degradation activity
15 | Cc1c(C(=O)N2CCC(c3ccc4c(c3)CN(C3CCC(=O)NC3=O)C4=O)CC2C)[nH]c2cc(Cl)ccc12 (stereo not shown) [Compound 60, 3-(5-(1-(6-chloro-3-methyl-1H-indole-2-carbonyl)-2-methylpiperidin-4-yl)-1-oxoinsoindolin-2-yl)piperidine-2,6-dione] | even greater IKZF2 degradation activity
16 | Cc1c(C(=O)N2CCC(c3ccc4c(c3)CN(C3CCC(=O)NC3=O)C4=O)CC2)[nH]c2cc(N)ccc12 (stereo not shown) [Compound 61, 3-(5-(1-(6-amino-3-methyl-1H-indole-2-carbonyl)piperidin-4-yl)-1-oxoinsoindolin-2-yl)piperidine-2,6-dione] | even greater IKZF2 degradation activity
17 | Cc1c(C(=O)N2CCC(N3CCC(c4ccc5c(c4)CN(C4CCC(=O)NC4=O)C5=O)CC3)CC2)[nH]c2cc(Cl)ccc12 (stereo not shown) [Compound 62, 3-(5-(1-(6-chloro-3-methyl-1H-indole-2-carbonyl)-[1,4′-bipiperidin]-4-yl)-1-oxoinsoindolin-2-yl)piperidine-2,6-dione] | even greater IKZF2 degradation activity
18 | Cc1c(C(=O)N2CCC(O)(c3ccc4c(c3)CN(C3CCC(=O)NC3=O)C4=O)CC2)[nH]c2cc(Cl)ccc12 (stereo not shown) [Compound 64, 3-(5-(1-(6-chloro-3-methyl-1H-indole-2-carbonyl)-4-hydroxypiperidin-4-yl)-1-oxoinsoindolin-2-yl)piperidine-2,6-dione] | even greater IKZF2 degradation activity
19 | Cc1c(C(=O)N2CCC(c3ccc4c(c3)CN(C3CCC(=O)NC3=O)C4=O)CC2)[nH]c2cc([N+](=O)[O-])c(Cl)cc12 (stereo not shown) [Compound 84, 3-(5-(1-(5-chloro-3-methyl-6-nitro-1H-indole-2-carbonyl)piperidin-4-yl)-1-oxoinsoindolin-2-yl)piperidine-2,6-dione] | even greater IKZF2 degradation activity
20 | Cc1cc2c(C)c(C(=O)N3CCC(c4ccc5c(c4)CN(C4CCC(=O)NC4=O)C5=O)CC3)[nH]c2cc1[N+](=O)[O-] (stereo not shown) [Compound 85, 3-(5-(1-(3,5-dimethyl-6-nitro-1H-indole-2-carbonyl)piperidin-4-yl)-1-oxoinsoindolin-2-yl)piperidine-2,6-dione] | even greater IKZF2 degradation activity
21 | Cc1c(C(=O)N2CCC(c3ccc4c(c3)CN(C3CCC(=O)NC3=O)C4=O)CC2)[nH]c2cc([N+](=O)[O-])c(O)cc12 (stereo not shown) [Compound 86, 3-(5-(1-(5-hydroxy-3-methyl-6-nitro-1H-indole-2-carbonyl)piperidin-4-yl)-1-oxoinsoindolin-2-yl)piperidine-2,6-dione] | even greater IKZF2 degradation activity
22 | CN(C)Cc1c(C(=O)N2CCC(c3ccc4c(c3)CN(C3CCC(=O)NC3=O)C4=O)CC2)[nH]c2cc(Cl)ccc12 (stereo not shown) [Compound 87, 3-(5-(1-(6-chloro-3-((dimethylamino)methyl)-1H-indole-2-carbonyl)piperidin-4-yl)-1-oxoinsoindolin-2-yl)piperidine-2,6-dione] | even greater IKZF2 degradation activity
23 | Cc1c(C(=O)N2CCC(c3cc4c(cc3F)C(=O)N(C3CCC(=O)NC3=O)C4)CC2)[nH]c2cc(Cl)ccc12 (stereo not shown) [Compound 90, 3-(5-(1-(6-chloro-3-methyl-1H-indole-2-carbonyl)piperidin-4-yl)-6-fluoro-1-oxoinsoindolin-2-yl)piperidine-2,6-dione] | even greater IKZF2 degradation activity
24 | Cc1c(C(=O)N2CCC(c3ccc4c(c3F)CN(C3CCC(=O)NC3=O)C4=O)CC2)[nH]c2cc(Cl)ccc12 (stereo not shown) [Compound 91, 3-(5-(1-(6-chloro-3-methyl-1H-indole-2-carbonyl)piperidin-4-yl)-4-fluoro-1-oxoinsoindolin-2-yl)piperidine-2,6-dione] | even greater IKZF2 degradation activity

Same assay, conditions: as shown in Table 1; listed as compound 63

Row | Compound | IKZF2 degradation activity (in words, comment on Table 1)
25 | Cc1c(C(=O)N2CC(N3CCC(c4ccc5c(c4)CN(C4CCC(=O)NC4=O)C5=O)CC3)C2)[nH]c2cc(Cl)ccc12 (stereo not shown) [Compound 63, 3-(5-(1-(1-(6-chloro-3-methyl-1H-indole-2-carbonyl)azetidin-3-yl)piperidin-4-yl)-1-oxoinsoindolin-2-yl)piperidine-2,6-dione] | even greater IKZF2 degradation activity
